Measured values from the NIST ThermoML archive (doi:10.1016/j.jct.2017.11.011).
Several values for one entry are separate records, joined by “and”; a condition that tells them apart may be missing. Equal entries are not always repeated. ± gives the expanded uncertainty stated by the source.

Experiments:
[1] = relative permittivity at various frequencies (dimensionless); conditions: 100 kPa, Liquid, Frequency=1 MHz, Parallel plate capacitor
[2] = relative permittivity at various frequencies (dimensionless); xn = mol fraction of the nth substance listed; conditions: 100 kPa, Liquid, Frequency=1 MHz, Parallel plate capacitor, x1 = 1

Row | SMILES | relative permittivity ([1]; 293.15 K) | relative permittivity ([1]; 298.15 K) | relative permittivity ([1]; 303.15 K) | relative permittivity ([2]; 293.15 K) | relative permittivity ([2]; 298.15 K) | relative permittivity ([2]; 303.15 K)
1 | CC(=O)N(C)C [N,N-dimethylethanamide] | 39.695 ± 1.1 and 39.653 ± 1.1 and 39.688 ± 1.1 | 38.586 ± 1 and 38.526 ± 1 and 38.6 ± 1 | 37.499 ± 1 and 37.515 ± 1 and 37.552 ± 1 | – | – | –
2 | CC(=O)N(C)C [N,N-dimethylethanamide] + CCCCN | – | – | – | 39.653 ± 1.1 | 38.526 ± 1 | 37.515 ± 1
3 | CC(=O)N(C)C [N,N-dimethylethanamide] + CCCCCCN | – | – | – | 39.688 ± 1.1 | 38.6 ± 1 | 37.552 ± 1
4 | CC(=O)N(C)C [N,N-dimethylethanamide] + CCCCNCCCC | – | – | – | 39.695 ± 1.1 | 38.586 ± 1 | 37.499 ± 1
5 | CC(=O)N(C)C [N,N-dimethylethanamide] + CCCNCCC | – | – | – | 39.695 ± 1.1 | 38.586 ± 1 | 37.499 ± 1
